Legend:
ApoE knockout mice [1] = experiment: Four blood lipids in serum of ApoE knockout mice (Example 1); assay type: in vivo; settings: half male and female, 20 mg/kg body weight
Description: Methods: SPF grade C57BL/6 ApoE −/−model mice were provided by Guangdong Medical Experimental Animal Center, laboratory animal production license No. SOCK (Guangdong) 2013-0002. Laboratory animal quality certificate number: 44007200048196). Mice were half male and half female, aged 8 to 12 weeks, and 72 animals in total. After four weeks of housing in a SPF-level animal facility, animals with less body weights were disposed. A total of 64 animals were randomly divided into 8 groups, 8 in each group, fed with 10% high-fat food, and received with different treatments. Animals were observed and administered with the medicines by gavage once daily. The body weights were measured once a week and continued for 58 days. […] The test sample was dissolved in dimethyl sulfoxide solution and prepared with 30% PEG300.
At the end of the experiment, animals were anesthetized with pentobarbital sodium. Blood was collected from the orbital venous plexus, and centrifuged at 3000 r/min at a low temperature for 10 min to separate the serum. The levels of total cholesterol TC, triglyceride TG, high-density lipoprotein HDL-C, and low-density lipoprotein LDL-C were measured, and the remaining serum was stored in a refrigerator at −80° C.
Statistical analysis: Data were expressed as the mean plus or minus the standard deviation (x± s), and analyzed by SPSS21.0 statistical software. […] The level of test is α=0.05.

ApoE knockout mice [2] = experiment: Blood lipid metabolism TG, TCHO, HDL-c, LDL-c (Example 2); assay type: in vivo
Description: Methods: A total of 130 SPF grade C57BL/6 ApoE −/− model male mice aged 8 weeks were purchased from Charles River Laboratories (Beijing, China) (animal license number: SCXK (Beijing) 2016-0001, animal qualification certificate No.: 11400700331337). After one week of acclimatization in a SPF-grade animal facility, the animals with less weights were discarded and the rest was randomly divided into 11 groups, with 8 animals in each group. Except for the healthy control group, the rest were fed with 10% high-fat food (the first day of the high-fat diet was recorded as D1). […] Animals were observed and administered by gavage once a day and the body weight were measured once a week for 56 days. […]
At the end of the experiment, the animals were euthanized by inhalation of carbon dioxide. […] The levels of total cholesterol TC, triglyceride TG, high-density lipoprotein HDL-C, and low-density lipoprotein LDL-C were measured, and the remaining serum was stored in a refrigerator at −80° C.
Before the start of the experiment, animal blood samples were analyzed for blood lipid metabolism, including conventional triglyceride (TG), total cholesterol (TCHO), high-density lipoprotein (HDL-c) and low-density lipoprotein (LDL-c). After high-fat or ordinary food feeding for 8 weeks, the blood lipid levels were measured again. […]

CD68 = experiment: Immunohistochemistry of aortic wall, CD68; assay type: in vivo, mice; settings: 20 mg/kg gavage QD
Description: (§1) Methods: SPF grade C57BL/6 ApoE −/−model mice were provided by Guangdong Medical Experimental Animal Center, laboratory animal production license No. SOCK (Guangdong) 2013-0002. Laboratory animal quality certificate number: 44007200048196). Mice were half male and half female, aged 8 to 12 weeks, and 72 animals in total. After four weeks of housing in a SPF-level animal facility, animals with less body weights were disposed. A total of 64 animals were randomly divided into 8 groups, 8 in each group, fed with 10% high-fat food, and received with different treatments. Animals were observed and administered with the medicines by gavage once daily. The body weights were measured once a week and continued for 58 days. Atorvastatin calcium tablets (abbreviated as statins) were ground and prepared with 0.5% sodium carboxymethyl cellulose solution. The test sample was dissolved in dimethyl sulfoxide solution and prepared with 30% PEG300.
(§2) After blood collection, the animals were sacrificed, and the aortic arch together with the heart and thoracic aorta were fixed with neutral formaldehyde and subject to pathological examination. […]
(§3) c) Immunohistochemistry: The thoracic aorta was sliced and detected by immunohistochemistry for the expression of CD68, intercellular adhesion molecule-1 (ICAM-1), and vascular cell adhesion Molecule-1 (VCAM-1).

ICAM-1 = experiment: Immunohistochemistry of aortic wall, ICAM-1; assay type: in vivo, mice; settings: 20 mg/kg gavage QD
Description: as §1, §2, §3

VCAM-1 = experiment: Immunohistochemistry of aortic wall, VCAM-1; assay type: in vivo, mice; settings: 20 mg/kg gavage QD
Description: as §1, §2, §3

For `CC(C)c1c(C(=O)Nc2ccccc2)c(-c2ccccc2)c(-c2ccc(F)cc2)n1CC[C@@H](O)C[C@@H](O)CC(=O)[O-].CC(C)c1c(C(=O)Nc2ccccc2)c(-c2ccccc2)c(-c2ccc(F)cc2)n1CC[C@@H](O)C[C@@H](O)CC(=O)[O-].[Ca+2]` [Statin, Atorvastatin calcium, reference compound], which HDL-C (ApoE knockout mice [1]) is on record?
The HDL-C was 1.68 ± 0.49 mmol/L.

And the “effect on high-density lipoprotein (HDL-c) level compared with the vehicle group” value (ApoE knockout mice [2])?
Its value is “increase”.

And the “effect on low-density lipoprotein (LDL-c) level compared with the vehicle group” value (ApoE knockout mice [2])?
Its value is “reduce”.

And the “CD68 average optical density” value (CD68)?
Its value is 1.68 ± 1.22 ×10^−2.

What about the “ICAM-1 average optical density” value (ICAM-1) of the same molecule?
The value was 2.04 ± 1.82 ×10^−2.

What about the “ICAM-1 average optical density” value (ICAM-1; listed as statin) of the same molecule?
The value was “lower than the model control group”.

And the “VCAM-1 average optical density” value (VCAM-1)?
The value was 1.09 ± 0.54 ×10^−2.
